Measured data: PubChem BioAssay AID504791 (Drosophila RNAi Screening Center, 2011)
Screen: 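Genes whose knock-down strengthens or weakens small-RNA reporter silencing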 (primary screen). System: Drosophila S2-derived reporter cells. Reagent: long dsRNA against Drosophila genes, about 150-250 ng dsRNA per well (siRNA assay); about 80-120 ng (miRNA assay). Time to read-out: about 5 days (siRNA assay); about 4 days (miRNA assay). Conditions: copper sulfate induction of reporters: 25 µM (siRNA assay); 200 mM stated (miRNA assay), 1-2 days before reading. Measured: 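Per-well ratio of Renilla over firefly light, expressed relative to that plate's average ratio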. Units: stable assay Renilla, run 1 in luminescence; stable assay firefly, run 1 in luminescence. Call rule: 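First-pass picks had plate-scaled ratios over 1.5 for the siRNA assay, over 1.6 for the miRNA assay, or under 0.6; two distinct dsRNAs had to score alike on retest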.
In all, the deposit lists about 23,000 reagents; shown is a random part of those with a known target gene and a result. In the full data, 199 (0.86%) got an active call. 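Plate-scaled ratios behind the calls are not deposited; printed light signals are raw; many rows marked increased or decreased are still called inactive.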 Entries without a mark were called inactive. A plus sign joins genes that one reagent is predicted to hit. Not stated in the record: the direction of the score.

Or30a [DRSC03385] scored stable assay Renilla, run 1 = 6958; stable assay firefly, run 1 = 4.57e5.
Depletion of Alg7 [DRSC02833] resulted in: stable assay Renilla, run 1 = 18215; stable assay firefly, run 1 = 1.32e6.
Depletion of Alg7 [DRSC02834] gave: stable assay Renilla, run 1 = 8894; stable assay firefly, run 1 = 4.69e5.
betaTub65B [DRSC11393] gave stable assay Renilla, run 1 = 6223; stable assay firefly, run 1 = 3.18e5.
Knock-down of Nelf-E [DRSC10567] gave: miRNA reporter change reporter ratio lowered past the hit cutoff (active); stable assay Renilla, run 1 = 6172; stable assay firefly, run 1 = 5.32e5.
Knock-down of Or10a [DRSC20264] gave: stable assay Renilla, run 1 = 4459; stable assay firefly, run 1 = 4.47e5.
Depletion of Glys [DRSC16130] gave: stable assay Renilla, run 1 = 8044; stable assay firefly, run 1 = 4.11e5.
For AP-1mu [DRSC14089] the deposit lists stable assay Renilla, run 1 = 8400; stable assay firefly, run 1 = 3.68e5.
reb [DRSC06308] showed stable assay Renilla, run 1 = 5399; stable assay firefly, run 1 = 3.12e5.
Knock-down of dally [DRSC08954] gave: stable assay Renilla, run 1 = 4363; stable assay firefly, run 1 = 3.54e5.
dally [DRSC11338] scored stable assay Renilla, run 1 = 8039; stable assay firefly, run 1 = 5.40e5.
Against CG33255 (retired record) + hpRNA:CR32205 + hpRNA:CR32207 [DRSC09617], the entry reads stable assay Renilla, run 1 = 6115; stable assay firefly, run 1 = 3.76e5.
For Saf-B [DRSC16167], the entry reads stable assay Renilla, run 1 = 7642; stable assay firefly, run 1 = 3.03e5.
Depletion of robl22E [DRSC00289] gave: stable assay Renilla, run 1 = 8151; stable assay firefly, run 1 = 4.09e5.
Against CG13800 (retired record) [DRSC08334], the values are stable assay Renilla, run 1 = 7318; stable assay firefly, run 1 = 4.33e5.
Silencing of CG33521 [DRSC17179] resulted in: stable assay Renilla, run 1 = 10245; stable assay firefly, run 1 = 4.91e5.
For CG33521 [DRSC17211], the entry reads stable assay Renilla, run 1 = 5848; stable assay firefly, run 1 = 3.85e5.
CG33521 [DRSC22919] scored stable assay Renilla, run 1 = 2751; stable assay firefly, run 1 = 3.61e5.
With knock-down of l(2)k01209 [DRSC06889], the record shows stable assay Renilla, run 1 = 5598; stable assay firefly, run 1 = 3.36e5.
For l(2)k01209 [DRSC29673] the deposit lists miRNA reporter change reporter ratio lowered past the hit cutoff.
Against Nepl11 [DRSC12333], the entry reads stable assay Renilla, run 1 = 6512; stable assay firefly, run 1 = 4.62e5.
With knock-down of Ptth [DRSC00356], the record shows stable assay Renilla, run 1 = 7794; stable assay firefly, run 1 = 4.12e5.
CG18628 [DRSC10328] scored stable assay Renilla, run 1 = 8455; stable assay firefly, run 1 = 4.27e5.
Against CG32985 [DRSC02634], the values are stable assay Renilla, run 1 = 8204; stable assay firefly, run 1 = 3.46e5.
With knock-down of Cse1 [DRSC03287] the results were stable assay Renilla, run 1 = 38889; stable assay firefly, run 1 = 1.69e6.
CG15879 [DRSC08487] showed stable assay Renilla, run 1 = 6687; stable assay firefly, run 1 = 3.27e5.
With knock-down of CG12155 [DRSC17826] the results were stable assay Renilla, run 1 = 5964; stable assay firefly, run 1 = 3.50e5.
Against CG12155 [DRSC23294], the values are stable siRNA reporter change reporter ratio lowered past the hit cutoff; stable assay Renilla, run 1 = 2124; stable assay firefly, run 1 = 2.53e5.
With knock-down of CG8757 [DRSC11039], the screen gave stable assay Renilla, run 1 = 5744; stable assay firefly, run 1 = 3.82e5.
After knock-down of hpRNA:CR32205 [DRSC09890], the record shows stable assay Renilla, run 1 = 7363; stable assay firefly, run 1 = 5.04e5.
Rbm13 [DRSC17749] gave stable assay Renilla, run 1 = 5756; stable assay firefly, run 1 = 3.25e5.
After knock-down of Cpr78Ca [DRSC11651] the results were stable assay Renilla, run 1 = 6952; stable assay firefly, run 1 = 4.04e5.
Knock-down of CG34417 [DRSC17467] resulted in: stable assay Renilla, run 1 = 4819; stable assay firefly, run 1 = 3.02e5.
Silencing of CG34417 [DRSC18332] came out at: stable assay Renilla, run 1 = 5080; stable assay firefly, run 1 = 2.77e5.
Silencing of CG34417 [DRSC18333] gave: stable assay Renilla, run 1 = 8195; stable assay firefly, run 1 = 3.76e5.

Laid out differently: 2 of the entries above
{"gene": "Or30a", "dsRNA": "DRSC03385", "stable assay Renilla, run 1": 6958, "stable assay firefly, run 1": 4.57e5}
{"gene": "Alg7", "dsRNA": "DRSC02833", "stable assay Renilla, run 1": 18215, "stable assay firefly, run 1": 1.32e6}
